# No constants are given. Whether binding was seen depends on the method and setting. Binding seen in cells or lysates may run through a third protein. Binding calls can cover weak binding; strength is not graded here. Tags and fused reporters may be left off the sequences shown.
# Target: T1, PAG1(α7) CP subunit bearing a C-terminal FLAG tag (Arabidopsis thaliana) (UniProt O23715)
# T1 sequence: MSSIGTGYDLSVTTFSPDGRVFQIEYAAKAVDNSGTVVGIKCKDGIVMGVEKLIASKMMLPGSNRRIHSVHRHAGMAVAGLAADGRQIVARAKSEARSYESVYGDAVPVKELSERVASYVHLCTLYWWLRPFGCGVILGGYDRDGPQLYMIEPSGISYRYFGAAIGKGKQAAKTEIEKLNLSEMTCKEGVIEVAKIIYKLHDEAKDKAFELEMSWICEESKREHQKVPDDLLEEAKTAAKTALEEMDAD
# Assay: co-IP; immune-depletion: resuspended APFp from PAG1-FLAG pag1-1 leaves applied three times to anti-FLAG M2 resin at 4 °C in buffer A (50 mM HEPES pH 7.5, 50 mM NaCl, 10% glycerol, 10 mM MgCl2, 20 mM ATP, 2 mM PMSF, 0.6% Na2S2O5); APFp, supernatant and immunoprecipitated fractions immunoblotted
substance,measurement,value
RPN1 RP subunit,binding,binds

# — publication PMC11829042, “Proteasomes accumulate in the plant apoplast where they participate in microbe-associated molecular pattern (MAMP)-triggered pathogen defense” (Nature Communications, 2025)
